Experimental data taken from publication PMC9732310.

Protein sequences, listed by entry. Tags and fused reporters are not part of them.
UniProt Q5VZM2: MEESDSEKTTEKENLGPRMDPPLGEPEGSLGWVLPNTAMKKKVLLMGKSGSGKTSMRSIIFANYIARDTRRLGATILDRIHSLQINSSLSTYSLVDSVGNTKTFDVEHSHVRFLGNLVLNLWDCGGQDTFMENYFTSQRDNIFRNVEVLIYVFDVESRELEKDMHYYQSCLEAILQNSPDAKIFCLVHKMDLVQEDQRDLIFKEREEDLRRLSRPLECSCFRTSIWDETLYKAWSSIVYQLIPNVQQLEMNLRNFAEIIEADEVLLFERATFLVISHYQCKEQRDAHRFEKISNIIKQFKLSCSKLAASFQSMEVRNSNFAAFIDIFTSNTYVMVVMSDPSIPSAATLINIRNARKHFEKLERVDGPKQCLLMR

Experiments:
FLAG-RagA = FLAG-RagA (UniProt Q7L523); experiment: affinity purification with mass spectrometry; extracts of HEK-293T cells expressing FLAG-Gal3, FLAG-RagA or FLAG-RagC on an anti-FLAG M2 affinity column, washed with cold PBS plus 0.1% Nonidet P-40, eluted with 3x FLAG peptides; SDS-PAGE, silver stain, LC/MS-MS
FLAG-RagC = FLAG-RagC (UniProt Q9HB90); experiment: as above

binding (FLAG-RagA): binds
binding (FLAG-RagC): binds
Substance: RagB (from UniProt Q5VZM2 1-374)

Results are given in words; binding and its absence hold for the method and conditions named. Binding seen in cells or lysates may run through a third protein. Here binding means that the protein was enriched with, or labelled near, the bait; the list need not be complete.
